Results on 2 molecules are retold here after paper PMC10721834.

The target in experiment [1] is GFP-Cw9a(1-52) (S. pombe (natural isolate CBS5557)). Kind of experiment: co-IP; in vivo co-immunoprecipitation in S. pombe (Supplementary Fig. 1h); GFP-Trap agarose beads by the general method.
The target of experiment [2] is GST-tagged Cw9a(1-104) PY1*PY3* (S. pombe (natural isolate CBS5557)). Kind of experiment: pull-down; GST pull-down: E. coli lysate with the GST fusion mixed with S. pombe lysate with the 3×FLAG-tagged ubiquitin ligase, 4 °C, glutathione-sepharose beads; 50 mM phosphate pH 7.4, 200 mM NaCl, 10% glycerol, 0.05% NP-40; anti-FLAG blot.
Experiment [3] concerns the target GST-tagged Cw9a(1-104) (S. pombe (natural isolate CBS5557)). Described as above.
The target in experiment [4] is GST-tagged Cw9a(1-52) (S. pombe (natural isolate CBS5557)). Described as above.
Experiment [5] addresses GST-tagged Cw9a(24-52) (S. pombe (natural isolate CBS5557)). Described as above.
Experiment [6] addresses GST-tagged Cw9a(53-104) (S. pombe (natural isolate CBS5557)). The experiment is described as above.
The target in experiment [7] is GST-tagged Cw9a(1-104) PY2* (S. pombe (natural isolate CBS5557)). The experiment is described as above.
The target in experiment [8] is GST-tagged Cw9a(1-104) PY3* (S. pombe (natural isolate CBS5557)). Described as above.
Experiment [9] addresses GST-tagged Cw9a(1-104) PY2*PY3* (S. pombe (natural isolate CBS5557)). Described as above.
Experiment [10] deals with GST-tagged Cw9a(1-104) PY1*PY2* (S. pombe (natural isolate CBS5557)). The description is as above.
The target of experiment [11] is GST-tagged Cw9a(1-104) PY1* (S. pombe (natural isolate CBS5557)). Described as above.

No constants are given. Whether binding was seen depends on the method and setting. In cells and extracts the contact can be indirect. A result given as binding can be weak or reduced; the word gives no strength. Sequences can lack the tags named with a protein.

B1: 3×FLAG-tagged Pub3 (enzyme, UniProt O14326 1-786)
chain: MEQGAKRVRFYIVAADGLSKRDLFRQPDPFAILTVDGEQTHTTKVIKKSVNPYWNEGFEVTVKPSSVISIRLFDQKKFKKKDQGFLGLVSFRMREVGSFRSNREVSLTRPLKKSSTTNLSVLGNLVLKVAPSKIRAPAGNHSSTTANRTTSTPTTTTARTTRTTPRPTATTNTSNQSTSNSTRNGTSAATSNGTGTGAGTGASHRSSPVTNRQTNNTSALSNSNAHIMSSFEDQYGRLPPGWERRADSLGRTYYVDHNTRTTTWTRPASSTNPVHNTSSDSQRLNHQNRHLPDDSNPSLMQSDSGNDLPFGWEMRYTDTGRPYFVDHNTRTTTWVDPRNPLVRPNGGSSTVGSLMQPQSLSHLGPLPSGWEMRLTNSARVYFVDHNTKTTTWDDPRLPSALDQDVPQYKCDFRRKLIYFRSQPGMRPLPGQCNVKVRRDHIFEDSYAEIMRYSAHDLKKRLMIRFDGEDGLDYGGLSREFFFLLSHKMFDPIYCLFEYSAVDNYTLQINPHSSINPEHLNYFRFIGRVIGLAIFHRRFLDAFFVVSLYKKLLRKKVSLADMESIDAEFYRSLKWVLENDITGILDLTFSVEEDHFGEVRTVELITNGENIEVTEENKKKYVDLVTEWRVSKRVEQQFNAFYSGFVELVSPDLVNVFDERELELLIGGISDVDVEDWKSHTEYRTYIATDPVIKWFWEIIAGWKNEDRSKLLQFATGTSRIPVNGFRDLQGSDGPRKFTIEKAGTPDQLPVAHTCFNRLDLPDYPSKDTLHEKLSLAVENTVGFGNE
With B1, the binding result in experiment [1] is listed as “binds”; in experiment [2] it was “binds”; in experiment [3] it was “binds”; in experiment [4] it was “binds”; in [5], “binds”; in [6], “binds weakly”. The binding result in experiment [7] is listed as “binds”; in experiment [8], “binds”; in experiment [9] it was “binds weakly”; in [10], “binds weakly”; in experiment [11] it was “binds”.

B2: 3×FLAG-tagged Pub2 (enzyme, UniProt Q9UTG2 1-671)
chain: MENIRFEVQLTILHVEGLWKNGLLRSLKPYLLISVDDDQFIKTNVASGTLRLSWGFTQKLTVSPQSIILLQLFDEKQKNETSDGFVGLGAAVVNSFLPFNNPKDDYKTRITLRSPSGSYRGSVVCLFKRSKFLPEELPADKSQICTDIIDDASGCAWETRIDEFGHVYYLKSPQLSVISAISHEKLENLTPKQLKEVFSQFLFNNQSKSSLKINLEYKVIKHLLEHYPLALSVRQQVAVEKGPLPAGWEMRLSEDYHVYFVDHSTKTTTWSDPRDNVVASDSVSENTDSIQQINDEYQRKIAYMYDRPEMAVNDAQLQLKVSRATTFEDAYDIISKLSVSDMKKKLLIRFRNEDGLDYGGVSREFFYILSHAIFNPGYSLFEYATDDNYGLQISPLSSVNPDFRSYFRFVGRVMGLAIYHRRYLDVQFVLPFYKRILQKPLCLEDVKDVDEVYYESLKWIKNNDVDESLCLNFSVEENRFGESVTVDLIPNGRNIAVNNQNKMNYLKALTEHKLVTSTEEQFNALKGGLNELIPDSVLQIFNENELDTLLNGKRDIDVQDWKRFTDYRSYTETDDIVIWFWELLSEWSPEKKAKLLQFATGTSRLPLSGFKDMHGSDGPRKFTIEKVGHISQLPKAHTCFNRLDIPPYNSKEELEQKLTIAIQETAGFGTE
As for B2, the binding entry in experiment [1] and in experiment [4] was “binds weakly” each time.
